Some results were stated once for a whole list of compounds, not compound by compound. For part of these data: At least one compound was matched to its structure with a doubt left.
Legend:
[1] = system: cotton aphid; experiment: Insecticidal test on cotton aphid (seedling dip); assay type: in vivo; settings: 500 ppm active ingredient, cucumber seedlings with larvae of cotton aphid dipped, 25° C., 3 days
In short: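 Cucumber seedlings carrying cotton aphid larvae were dipped in a water-diluted wettable powder at 500 ppm active ingredient, then air-dried. After 3 days at 25° C. live insects were counted and mortality calculated; single series.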

[2] = system: brown rice planthopper; experiment: Insecticidal test on brown rice planthopper; assay type: in vivo; settings: 500 ppm active ingredient, rice sprouts dipped, third-instar larvae, 25° C., 6 days
In short: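 Rice sprouts dipped in 500 ppm active ingredient (water-diluted wettable powder), then exposed to ten third-instar brown rice planthopper larvae. Held at 25° C. for 6 days; dead larvae counted for mortality, single series.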

[3] = system: two-spotted spider mites; experiment: Miticidal test on two-spotted spider mites (seedling dip); assay type: in vivo, Tetranvchus urticae; settings: 500 ppm active ingredient, soybean seedlings with imago mites dipped, 25° C., 13 days
Method: A wettable powder prepared in accordance with Formulation Example 2 was diluted with water to a concentration of an active ingredient of 500 ppm. Soybean seedlings which had been inoculated with imago two-spotted spider mites were dipped in the solution and dried in air. The treated soybean seedlings were placed in a thermostatic chamber at 25° C. for 13 days, and the number of live mites were assessed for calculation of the protective value by Equation 1. The test was carried out by one series system.

[4] = system: southern root-knot nematodes; experiment: Nematicidal test on root-knot nematode; assay type: in vivo; settings: 20 ppm active ingredient solution mixed 1:1 with suspension of second-instar larvae, 25° C., 5 days
Method: A compound to be tested was dissolved in N,N-dimethylformamide containing 1 mass % of tween 20, and this solution was diluted with distilled water to a concentration of an active ingredient of 20 ppm. 0.5 mL of the solution was mixed with 0.5 mL of a suspension containing about 30 second-instar larvaes of southern root-knot nematodes, and the mixture was placed in a thermostatic chamber at 25° C. for 5 days. The number of dead nematodes and the number of live nematodes were assessed by a microscope for calculation of the mortality by Equation 3. The test was carried out by two series system.

[5] = system: two-spotted spider mites; experiment: Miticidal test on two-spotted spider mites (soil irrigation); assay type: in vivo, Tetranvchus urticae; settings: 100 ppm active ingredient, soil (100 g) of soybean seedlings irrigated with 5 mL, 25° C., 13 days

CC(=O)Nc1cc(OCSC(F)(F)F)nn1-c1cc([S+]([O-])CC(F)(F)F)c(C)cc1F (stereo not drawn) [1-6]
mortality [1]: ≥ 90% | mortality [2]: ≥ 90% | protective value [3]: ≥ 90

Cc1cc(F)c(-n2nc(OC(F)(F)C(F)C(F)(F)F)cc2N)cc1[S+]([O-])CC(F)(F)F (stereo not drawn) [1-10]
mortality [1]: ≥ 90% | mortality [2]: ≥ 90% | protective value [3]: ≥ 90

Cc1cc(F)c(-n2nc(OCC(F)(F)C(F)(F)F)cc2N)cc1SCC(F)(F)F [1-11]
mortality [1]: ≥ 90% | mortality [2]: ≥ 90% | mortality [4]: ≥ 90%

Cc1cc(F)c(-n2nc(OCC(F)(F)C(F)(F)F)cc2N)cc1[S+]([O-])CC(F)(F)F (stereo not drawn) [1-12]
mortality [2]: ≥ 90% | mortality [4]: ≥ 90%

CC(=O)Nc1cc(OC(F)(F)C(F)C(F)(F)F)nn1-c1cc(SCC(F)(F)F)c(C)cc1F (stereo not drawn) [1-13]
mortality [1]: ≥ 90% | mortality [2]: ≥ 90% | protective value [3]: ≥ 90

CC(=O)Nc1cc(OC(F)(F)C(F)C(F)(F)F)nn1-c1cc([S+]([O-])CC(F)(F)F)c(C)cc1F (stereo not drawn) [1-14]
mortality [1]: ≥ 90% | mortality [2]: ≥ 90% | protective value [3]: ≥ 90

CC(=O)Nc1cc(OCC=CCl)nn1-c1cc([S+]([O-])CC(F)(F)F)c(C)cc1F (stereo not drawn) [1-22]
mortality [1]: ≥ 90% | mortality [2]: ≥ 90% | protective value [3]: ≥ 90

CC(=O)Nc1cc(OC(C)C)nn1-c1cc([S+]([O-])CC(F)(F)F)c(C)cc1F (stereo not drawn) [1-26]
mortality [1]: ≥ 90% | mortality [2]: ≥ 90% | protective value [3]: ≥ 90

CNc1cc(OCC(F)(F)C(F)(F)F)nn1-c1cc(SCC(F)(F)F)c(C)cc1F [1-27]
mortality [1]: ≥ 90% | mortality [2]: ≥ 90% | protective value [3]: ≥ 90

Cc1cc(F)c(-n2nc(OCC(F)(F)C(F)(F)F)cc2NC(=O)C(F)(F)F)cc1[S+]([O-])CC(F)(F)F (stereo not drawn) [1-30]
mortality [1]: ≥ 90% | mortality [2]: ≥ 90% | protective value [3]: ≥ 90 | mortality [4]: ≥ 90%

COC(=O)Nc1cc(OCC(F)(F)C(F)(F)F)nn1-c1cc(SCC(F)(F)F)c(C)cc1F [1-31]
mortality [1]: ≥ 90% | mortality [2]: ≥ 90% | protective value [3]: ≥ 90

COC(=O)Nc1cc(OCC(F)(F)C(F)(F)F)nn1-c1cc([S+]([O-])CC(F)(F)F)c(C)cc1F (stereo not drawn) [1-32]
mortality [2]: ≥ 90% | protective value [3]: ≥ 90 | protective value [5]: ≥ 90

CC(=O)N(C)c1cc(OCC(F)(F)C(F)(F)F)nn1-c1cc(SCC(F)(F)F)c(C)cc1F [1-33]
mortality [1]: ≥ 90% | protective value [3]: ≥ 90

CC(=O)N(CC#N)c1cc(OCC(F)(F)C(F)(F)F)nn1-c1cc(SCC(F)(F)F)c(C)cc1F [1-35]
mortality [1]: ≥ 90% | mortality [2]: ≥ 90% | protective value [3]: ≥ 90

COC(=O)N(C(C)=O)c1cc(OCC(F)(F)C(F)(F)F)nn1-c1cc(SCC(F)(F)F)c(C)cc1F [1-37]
mortality [1]: ≥ 90% | mortality [2]: ≥ 90% | protective value [3]: ≥ 90

Cc1cc(F)c(-n2nc(OCC(F)(F)C(F)(F)F)c(F)c2N)cc1[S+]([O-])CC(F)(F)F (stereo not drawn) [1-42]
mortality [2]: ≥ 90% | protective value [3]: ≥ 90 | mortality [4]: ≥ 90%

Cc1cc(F)c(-n2nc(OCC(F)(F)C(F)(F)C(F)(F)F)cc2N)cc1[S+]([O-])CC(F)(F)F (stereo not drawn) [1-54]
mortality [2]: ≥ 90% | mortality [4]: ≥ 90%

CC(=O)Nc1cc(OCC(F)(F)C(F)(F)C(F)(F)F)nn1-c1cc([S+]([O-])CC(F)(F)F)c(C)cc1F (stereo not drawn) [1-58]
mortality [1]: ≥ 90% | mortality [2]: ≥ 90% | protective value [3]: ≥ 90

CC(=O)Nc1cc(OCCCC(F)(F)F)nn1-c1cc([S+]([O-])CC(F)(F)F)c(C)cc1F (stereo not drawn) [1-62]
mortality [1]: ≥ 90% | protective value [3]: ≥ 90

Cc1cc(F)c(-n2nc(OC(F)(F)C(F)C(F)(F)F)cc2C)cc1SCC(F)(F)F (stereo not drawn) [1-89]
mortality [1]: ≥ 90% | mortality [2]: ≥ 90% | protective value [3]: ≥ 90

Cc1cc(F)c(-n2nc(OCC(F)(F)C(F)(F)F)c(Cl)c2C)cc1SCC(F)(F)F [1-93]
mortality [1]: ≥ 90% | mortality [2]: ≥ 90% | protective value [3]: ≥ 90

Cc1cc(F)c(-n2nc(OCC(F)(F)C(F)(F)C(F)(F)F)cc2C)cc1SCC(F)(F)F [1-99]
mortality [1]: ≥ 90% | mortality [2]: ≥ 90% | protective value [3]: ≥ 90

Cc1cc(F)c(-n2nc(OCC(F)(F)C(F)(F)C(F)(F)F)cc2C)cc1[S+]([O-])CC(F)(F)F (stereo not drawn) [1-100]
mortality [1]: ≥ 90% | mortality [2]: ≥ 90% | protective value [3]: ≥ 90

Cc1cc(F)c(-n2nc(OCC(F)(F)C(F)(F)C(F)(F)C(F)(F)F)cc2C)cc1SCC(F)(F)F [1-101]
mortality [1]: ≥ 90% | mortality [2]: ≥ 90% | protective value [3]: ≥ 90

Cc1cc(F)c(-n2nc(OCC(F)(F)C(F)(F)C(F)(F)C(F)(F)F)cc2C)cc1[S+]([O-])CC(F)(F)F (stereo not drawn) [1-102]
mortality [1]: ≥ 90% | mortality [2]: ≥ 90% | protective value [3]: ≥ 90

Cc1cc(F)c(-n2nc(OC(F)(F)C(F)OC(F)(F)F)cc2C)cc1SCC(F)(F)F (stereo not drawn) [1-105]
mortality [1]: ≥ 90% | mortality [2]: ≥ 90% | protective value [3]: ≥ 90

Cc1cc(F)c(-n2nc(OCC(F)(F)C(F)(F)C(F)(F)C(F)(F)C(F)(F)F)cc2C)cc1[S+]([O-])CC(F)(F)F (stereo not drawn) [1-108]
mortality [1]: ≥ 90% | mortality [2]: ≥ 90% | protective value [3]: ≥ 90

Cc1cc(F)c(-n2nc(OCC(F)(F)C(F)(F)F)c(Br)c2Br)cc1SCC(F)(F)F [1-113]
mortality [1]: ≥ 90% | mortality [2]: ≥ 90% | protective value [3]: ≥ 90

CCC(=O)Nc1cc(OCC(F)(F)C(F)(F)F)nn1-c1cc(SCC(F)(F)F)c(C)cc1F [1-115]
mortality [1]: ≥ 90% | mortality [2]: ≥ 90% | protective value [3]: ≥ 90

COCC(=O)Nc1cc(OCC(F)(F)C(F)(F)F)nn1-c1cc([S+]([O-])CC(F)(F)F)c(C)cc1F (stereo not drawn) [1-118]
mortality [1]: ≥ 90% | mortality [2]: ≥ 90% | protective value [3]: ≥ 90 | mortality [4]: ≥ 90%

Cc1cc(F)c(-n2nc(OCC(F)(F)C(F)(F)F)cc2NC(=O)C(F)F)cc1SCC(F)(F)F [1-123]
mortality [1]: ≥ 90% | mortality [2]: ≥ 90% | protective value [3]: ≥ 90

Cc1cc(F)c(-n2nc(OCC(F)(F)C(F)(F)F)cc2NC(=O)C(F)F)cc1[S+]([O-])CC(F)(F)F (stereo not drawn) [1-124]
mortality [4]: ≥ 90%

CC(=Nc1cc(OCC(F)(F)C(F)(F)F)nn1-c1cc(SCC(F)(F)F)c(C)cc1F)OCC(F)(F)F [1-125]
mortality [1]: ≥ 90% | protective value [3]: ≥ 90

C=CCN(C(C)=O)c1cc(OCC(F)(F)C(F)(F)F)nn1-c1cc(SCC(F)(F)F)c(C)cc1F [1-127]
mortality [1]: ≥ 90% | mortality [2]: ≥ 90% | protective value [3]: ≥ 90

C#CCN(C(C)=O)c1cc(OCC(F)(F)C(F)(F)F)nn1-c1cc(SCC(F)(F)F)c(C)cc1F [1-129]
mortality [1]: ≥ 90% | mortality [2]: ≥ 90% | protective value [3]: ≥ 90

C#CCN(C(C)=O)c1cc(OCC(F)(F)C(F)(F)F)nn1-c1cc([S+]([O-])CC(F)(F)F)c(C)cc1F (stereo not drawn) [1-130]
mortality [1]: ≥ 90% | mortality [2]: ≥ 90% | protective value [3]: ≥ 90

Cc1cc(F)c(-n2nc(OCC(F)(F)C(F)(F)F)cc2NCC(=O)O)cc1SCC(F)(F)F [1-137]
mortality [1]: ≥ 90% | mortality [2]: ≥ 90% | protective value [3]: ≥ 90

Cc1cc(F)c(-n2nc(OCC(F)(F)C(F)(F)C(F)(F)F)cc2C#N)cc1SCC(F)(F)F [1-157]
mortality [1]: ≥ 90% | mortality [2]: ≥ 90% | protective value [3]: ≥ 90

C=CCNc1cc(OCC(F)(F)C(F)(F)F)nn1-c1cc(SCC(F)(F)F)c(C)cc1F [1-159]
mortality [1]: ≥ 90% | mortality [2]: ≥ 90% | protective value [3]: ≥ 90

C=CCNc1cc(OCC(F)(F)C(F)(F)F)nn1-c1cc([S+]([O-])CC(F)(F)F)c(C)cc1F (stereo not drawn) [1-160]
mortality [2]: ≥ 90% | protective value [3]: ≥ 90 | mortality [4]: ≥ 90%

Cc1cc(F)c(-n2nc(OC(F)(F)C(F)(F)C(F)(F)F)cc2C)cc1[S+]([O-])CC(F)(F)F (stereo not drawn) [1-270]
mortality [1]: ≥ 90% | mortality [2]: ≥ 90% | mortality [4]: ≥ 90%

Cc1cc(F)c(-n2nc(OC(F)F)cc2C)cc1[S+]([O-])CC(F)(F)F (stereo not drawn) [1-1412]
mortality [4]: ≥ 90%

COc1cc(C)n(-c2cc([S+]([O-])CC(F)(F)F)c(C)cc2F)n1 (stereo not drawn) [1-1414]
mortality [2]: ≥ 90% | mortality [4]: ≥ 90%

Cc1cc(F)c(-n2nc(OCC(F)(F)F)cc2C)cc1[S+]([O-])CC(F)(F)F (stereo not drawn) [1-1416]
mortality [2]: ≥ 90% | mortality [4]: ≥ 90%

Cc1cc(F)c(-n2nc(OC(F)(F)C(F)F)cc2C)cc1[S+]([O-])CC(F)(F)F (stereo not drawn) [1-1418]
mortality [2]: ≥ 90% | mortality [4]: ≥ 90%

Cc1cc(F)c(-n2nc(OCC(F)(F)Cl)cc2C)cc1[S+]([O-])CC(F)(F)F (stereo not drawn) [1-1420]
mortality [4]: ≥ 90%

Source: patent US8802713B2, “3-alkoxy-1-phenylpyrazole derivatives and pesticides” (Kumiai Chemical Industry Co., Ltd., priority 2007, dated 2014)
